Source: patent publication US10160783B2, “Neuroactive 13, 17-substituted steroids as modulators for GABA type-A receptors” (priority 2013, dated 2018)

Experiments:
[1] = test system: picrotoxin binding site on GABAA receptors; test: [35S]-TBPS displacement (inhibition of [35S]-TBPS binding); details: Hill coefficient of the TBPS displacement curve; ± SEM
Protocol: The IC50 values for non-competitive displacers of [^35S]-TBPS from the picrotoxin binding site on GABAA receptors are reported in Table 1.
Results presented are from duplicate experiments performed in triplicate. Error limits are calculated as standard error of the mean. Methods used are known in the art (see Jiang, X., et al., Neurosteroid analogues. 9. Conformationally constrained pregnanes: structure-activity studies of 13,24-cyclo-18,21-dinorcholane analogues of the GABA modulatory and anesthetic steroids (3α,5α)- and […]. J. Med. Chem., 46: 5334-48 (2003)—the contents of which are hereby incorporated by reference in their entirety).

Tadpole = Tadpole loss of righting reflex (LRR) and loss of swimming reflex (LSR); format: in vivo; details: Hill coefficient, ± SEM; for Tadpole LRR nHill: loss of righting reflex; for Tadpole LSR nHill: loss of swimming reflex
Protocol: Table 3 discloses the anesthetic effects of the compounds of the present disclosure. In particular, the anesthetic effect of the compounds of the present disclosure on Loss of Righting Reflex (LRR) and Loss of Swimming Reflex (LSR).
Methods used are known in the art (see Jiang, X., et al.). Error limits are calculated as standard error of the mean (N=10 or more animals at each of five or more different concentrations).

SMILES	nHill, Inhibition of [35S]-TBPS Binding [1]	Tadpole LRR nHill (Tadpole)	Tadpole LSR nHill (Tadpole)
C=C[C@]12CC[C@H]3[C@@H](CC[C@H]4C[C@H](O)CC[C@@]43C)[C@@H]1CC[C@@H]2[C@@H](C)O [ZYC-76, (3α,5α,20R)-13-Ethenyl-18-norpregnan-3,20-diol]	1.50 ± 0.21	−1.64 ± 0.58	−35.9 ± 0.1
CC(=O)[C@]12CC[C@H]3[C@@H](CC[C@H]4C[C@H](O)CC[C@@]43C)[C@@H]1CC[C@@H]2[C@@H](C)O [ZYC-72, (3α,5α,20R)-13-Acetyl-18-norpregnane-3,20-diol]	0.70 ± 0.24	−21.3 ± 0.0	
C=C[C@H]1CC[C@H]2[C@@H]3CC[C@H]4C[C@H](O)CC[C@]4(C)[C@H]3CC[C@]12C(C)=O [XJ-99, 1-[(3α,5α)-3-Hydroxy-18-norpregn-20-en-13-yl]ethanone]	1.43 ± 0.44	−2.90 ± 0.05	−3.95 ± 0.02
C=C[C@H]1CC[C@H]2[C@@H]3CC[C@H]4C[C@H](O)CC[C@]4(C)[C@H]3[C@@H](OC)C[C@]12C(C)=O [KK-144, 1-[(3α,5α,11β)-3-Hydroxy-11-methoxy-18-norpregn-20-en-13-yl]ethanone]	1.31 ± 0.32	−2.25 ± 0.15	−33.3 ± 0.1
CC[C@H]1CC[C@H]2[C@@H]3CC[C@H]4C[C@H](O)CC[C@]4(C)[C@H]3CC[C@]12C(C)=O [XJ-100, 1-[(3α,5α)-3-Hydroxy-18-norpregnan-13-yl]ethanone]	0.78 ± 0.24	−1.23 ± 0.44	
C=C[C@H]1CC[C@H]2[C@@H]3CC[C@H]4C[C@H](O)CC[C@]4(COC)[C@H]3CC[C@]12C(C)=O [KK-145, 1-[(3α,5α)-3-Hydroxy-19-methoxy-18-norpregn-20-en-13-yl]ethanone]	1.21 ± 0.10	−2.55 ± 0.42	−33.3 ± 0.1
CC(=O)[C@H]1CC[C@H]2[C@@H]3CC[C@H]4C[C@H](O)CC[C@]4(C)[C@H]3CC[C@]12C(C)=O [ZYC-71, (3α,5α)-13-Acetyl-3-hydroxy-18-norpregnan-20-one]	1.11 ± 0.08	−4.00 ± 0.02	−33.5 ± 0.1
C=C[C@H]1CC[C@H]2[C@@H]3CC[C@H]4C[C@H](O)[C@@H](OC)C[C@]4(C)[C@H]3CC[C@]12C(C)=O [KK-140, 1-[(2β,3α,5α)-3-Hydroxy-2-Methoxy-18-norpregn-20-en-13-yl]ethanone]	0.79 ± 0.07	−1.80 ± 0.10	−3.5 ± 0.3
C=C[C@H]1CC[C@H]2[C@@H]3C[C@@H](OC)[C@H]4C[C@H](O)CC[C@]4(C)[C@H]3CC[C@]12C(C)=O [KK-143, 1-[(3α,5α,6β)-3-Hydroxy-6-methoxy-18-norpregn-20-en-13-yl]ethanone]	1.14 ± 0.08	−1.80 ± 0.27	−36.3 ± 0.1
CC(=O)[C@]12CC[C@H]3[C@@H](CC[C@H]4C[C@H](O)CC[C@@]43C)[C@@H]1CC[C@@H]2CO [ZYC-73, 1-[(3α,5α,17β)-3-Hydroxy-17-hydroxymethyl-18-norandrostan-13-yl]ethanone]	1.02 ± 0.13		
CC(=O)[C@]12CC[C@H]3[C@@H](CC[C@H]4C[C@H](O)CC[C@@]43C)[C@@H]1CC[C@@H]2CCl [ZYC-74, 1-[(3α,5α,17β)-17-Chloromethy-3-hydroxy-18-norandrostan-13-yl]ethanone]	1.02 ± 0.17	−2.36 ± 2.35	−33.2 ± 0.2
